Source: patent US20140350088

The chains behind the UniProt entries cited, without tags or fusion partners. Residues count along the entry.
UniProt P01275, 53-81: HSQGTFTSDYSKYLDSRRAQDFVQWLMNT

Molecular target: biotinylated human glucagon (Homo sapiens) (UniProt P01275)
Assay: SPR
Details: synthetic protein, mirror-image nucleic acid

## CAGACGUGUGUGGGUAGATGCACCUGCGAUUCGCUAAAAAGUGCCACACGUCUG [NOX-G11-D19]
L-RNA, dT at 19, improved vs parent, among best, variant of NOX-G11stabi2
  binding result: binds

## CAGACGUGUGUGGGUAGAUGCACCUGCGAUUCGCUAAAAAGTGCCACACGUCUG [NOX-G11-D42]
L-RNA, dT at 42, reduced or lost binding vs parent, variant of NOX-G11stabi2
  binding result: binds more weakly

## CAGACGUGUGUGGGUAGAUGCACCUGCGAUUCGCUAAAAAGUGCCACACGUCTG [NOX-G11-D53]
L-RNA, dT at 53, improved vs parent, 37 C, synthetic backbone
  binding result: binds

## ACTCGAGAGGAAAGGTTGGTAAAGGTTCGGTTGGATTCACTCGAGT [259-H6-002-R33]
L-DNA, ribo at 33, reduced or lost vs parent, 37 C, synthetic backbone
  binding result: binds more weakly

## CAGACGUGUGUGGGUAGAUGCACCTGCGAUUCGCUAAAAAGUGCCACACGUCUG [NOX-G11-D25]
L-RNA, dT at 25, improved vs parent, 37 C, synthetic backbone
  binding result: binds

## ACTCGAGAGGAAAGGTTGGTAAAGGTTCGGTTGGATTCACTCGAGT [259-H6-002-R34]
L-DNA, ribo at 34, reduced or lost vs parent, 37 C, synthetic backbone
  binding result: binds more weakly

## CAGACGUGUGUGGGUAGAUGCACCUGCGAUUCGCUAAAAAGUGCCACACGUCUG [NOX-G11-D20]
L-RNA, 2'-deoxy at 20, improved vs parent, 37 C, synthetic backbone
  binding result: binds

## CAGACGUGUGUGGGUAGAUGCACCUGCGAUUCGCUAAAAAGUGCCACACGUCUG [NOX-G11-D54]
L-RNA, dG at 54, reduced or lost binding vs parent, variant of NOX-G11stabi2
  binding result: binds more weakly

## CAGACGUGUGUGGGUAGAUGCACCUGCGAUUCGCUAAAAAGUGCCACACGUCUG [NOX-G11-D38]
L-RNA, 2'-deoxy at 38, improved vs parent, 37 C, synthetic backbone
  binding result: binds

## CAGACGUGUGUGGGUAGAUGCACCUGCGAUUCGCUAAAAAGUGCCACACGUCUG [NOX-G11-D26]
L-RNA, 2'-deoxy at 26, improved vs parent, 37 C, synthetic backbone
  binding result: binds

## ACTCGAGAGGAAAGGTTGGTAAAGGTTCGGUTGGATTCACTCGAGT [259-H6-002-R31]
L-DNA, rU at 31, improved vs parent, 37 C, synthetic backbone
  binding result: binds

## CAGACGUGUGUGGGUAGAUGCACCUGCGAUUCGCUAAAAAGUGCCACACGUCUG [NOX-G11-D40]
L-RNA, 2'-deoxy at 40, unchanged vs parent, 37 C, synthetic backbone
  binding result: binds

## ACTCGAGAGGAAAGGTTGGTAAAGGTTCGGTTGGATTCACUCGAGT [259-H6-002-R41]
L-DNA, rU at 41, reduced or lost vs parent, 37 C, synthetic backbone
  binding result: binds more weakly

## CAGACGUGUGUGGGUAGAUGCACCUGCGAUUCGCUAAAAAGUGCCACACGUCUG [NOX-G11-D52]
L-RNA, 2'-deoxy at 52, unchanged vs parent, 37 C, synthetic backbone
  binding result: binds

## CAGACGUGUGUGGGUAGAUGCACCUGCGAUUCGCUAAAAAGUGCCACACGUCUG [NOX-G11-D36]
L-RNA, 2'-deoxy at 36, improved vs parent, 37 C, synthetic backbone
  binding result: binds

## ACTCGAGAGGAAAGGTTGGTAAAGGTTCGGTTGGATTCACTCGAGT [259-H6-002-R29]
L-DNA, ribo at 29, reduced or lost vs parent, 37 C, synthetic backbone
  binding result: binds more weakly

## ACTCGAGAGGAAAGGTTGGTAAAGGTTCGGTTGGATTCACTCGAGT [259-H6-002-R19]
L-DNA, ribo at 19, reduced or lost vs parent, 37 C, synthetic backbone
  binding result: binds more weakly

## CAGACGUGUGUGGGUAGAUGCACCUGCGAUUCGCUAAAAAGUGCCACACGUCUG [NOX-G11-D08]
L-RNA, 2'-deoxy at 8, improved vs parent, 37 C, synthetic backbone
  binding result: binds

## ACTCGAGAGGAAAGGTTGGTAAAGGTTCGGTTGGATTCACTCGAGU [259-H6-002-R46]
L-DNA, rU at 46, affinity unchanged vs parent, variant of 259-H6-002
  binding result: binds

## ACTCGAGAGGAAAGGTTGGTAAAGGTTCGGTTGGATTCACTCGAGT [259-H6-002-R02]
L-DNA, rC at 2, reduced or lost binding vs parent, variant of 259-H6-002
  binding result: binds more weakly

## ACTCGAGAGGAAAGGTTGGTAAAGGTTCGGTTGGATTCACTCGAGT [259-H6-002-R10]
L-DNA, rG at 10, reduced or lost binding vs parent, variant of 259-H6-002
  binding result: binds more weakly

## ACTCGAGAGGAAAGGTTGGTAAAGGTTCGGTTGGATTCACTCGAGT [259-H6-002-R08]
L-DNA, ribo at 8, improved vs parent, 37 C, synthetic backbone
  binding result: binds

## CAGACGUGUGUGGGUAGAUGCACCUGCGAUUCGCUAAAAAGUGCCACACGUCUG [NOX-G11-D33]
L-RNA, 2'-deoxy at 33, unchanged vs parent, 37 C, synthetic backbone
  binding result: binds

## ACTCGAGAGGAAAGGTTGGTAAAGGTTCGGTTGGATTCACTCGAGT [259-H6-002-R39]
L-DNA, ribo at 39, improved vs parent, 37 C, synthetic backbone
  binding result: binds

## ACTCGAGAGGAAAGGTTGGTAAAGGTTCGGTTGGATTCACTCGAGT [259-H6-002-R21]
L-DNA, ribo at 21, reduced or lost vs parent, 37 C, synthetic backbone
  binding result: binds more weakly

## ACTCGAGAGGAAAGGTTGGTAAAGGTTCGGTTGGATTCACTCGAGT [259-H6-002-R11]
L-DNA, rA at 11, reduced or lost binding vs parent, variant of 259-H6-002
  binding result: binds more weakly

## ACTCGAGAGGAAAGGTTGGTAAAGGTTCGGTTGGATTCACTCGAGT [259-H6-002-R23]
L-DNA, ribo at 23, reduced or lost vs parent, 37 C, synthetic backbone
  binding result: binds more weakly

## CAGACGUGUGUGGGUAGAUGCACCUGCGAUUCGCUAAAAAGUGCCACACGUCUG [NOX-G11-D34]
L-RNA, 2'-deoxy at 34, unchanged vs parent, 37 C, synthetic backbone
  binding result: binds

## ACTCGAGAGGAAAGGTTGGTAAAGGTTCGGTTGGATTCACTCGAGT [259-H6-002-R07]
L-DNA, rG at 7, reduced or lost binding vs parent, variant of 259-H6-002
  binding result: binds more weakly

## CAGACGUGUGUGGGUAGAUGCACCUGCGAUUCGCUAAAAAGUGCCACACGUCUG [NOX-G11-D12]
L-RNA, 2'-deoxy at 12, improved vs parent, 37 C, synthetic backbone
  binding result: binds

## CAGACGUGUGUGGGUAGAUGCACCUGCGAUUCGCUAAAAAGUGCCACACGUCUG [NOX-G11-D43]
L-RNA, 2'-deoxy at 43, unchanged vs parent, 37 C, synthetic backbone
  binding result: binds

## CAGACGUGUGTGGGUAGAUGCACCUGCGAUUCGCUAAAAAGUGCCACACGUCUG [NOX-G11-D11]
L-RNA, dT at 11, unchanged vs parent, 37 C, synthetic backbone
  binding result: binds

## CAGACGUGUGUGGGUAGAUGCACCUGCGAUUCGCUAAAAAGUGCCACACGUCUG [NOX-G11-D39]
L-RNA, 2'-deoxy at 39, unchanged vs parent, 37 C, synthetic backbone
  binding result: binds

## ACTCGAGAGGAAAGGTTGGTAAAGGTTCGGTTGGATTCACTCGAGT [259-H6-002-R06]
L-DNA, rA at 6, affinity unchanged vs parent, variant of 259-H6-002
  binding result: binds

## CAGACGUGUGUGGGUAGAUGCACCUGCGAUUCGCUAAAAAGUGCCACACGUCUG [NOX-G11-D16]
L-RNA, dA at 16, improved vs parent, among best, variant of NOX-G11stabi2
  binding result: binds

## CAGACGUGUGUGGGUAGAUGCACCUGCGAUUCGCUAAAAAGUGCCACACGUCUG [NOX-G11-D28]
L-RNA, 2'-deoxy at 28, improved vs parent, 37 C, synthetic backbone
  binding result: binds

## ACTCGAGAGGAAAGGTTGGTAAAGGTTCGGTTGGATTCACTCGAGT [259-H6-002-R22]
L-DNA, ribo at 22, improved vs parent, 37 C, synthetic backbone
  binding result: binds

## CAGACGUGUGUGGGUAGAUGCACCUGCGAUUCGCUAAAAAGUGCCACACGUCUG [NOX-G11-D44]
L-RNA, 2'-deoxy at 44, improved vs parent, 37 C, synthetic backbone
  binding result: binds

## ACTCGAGAGGAAAGGTTGGTAAAGGTTCGGTTGGATTCACTCGAGT [259-H6-002-R25]
L-DNA, ribo at 25, reduced or lost vs parent, 37 C, synthetic backbone
  binding result: binds more weakly

## CAGACGUGUGUGGGUAGAUGCACCUGCGAUUCGCUAAAAAGUGCCACACGUCUG [NOX-G11-D03]
L-RNA, 2'-deoxy at 3, improved vs parent, 37 C, synthetic backbone
  binding result: binds

## ACTCGAGAGGAAAGGTTGGTAAAGGTTCGGTTGGATTCACTCGAGT [259-H6-002-R35]
L-DNA, ribo at 35, reduced or lost vs parent, 37 C, synthetic backbone
  binding result: binds more weakly

## ACTCGAGAGGAAAGGTTGGUAAAGGTTCGGTTGGATTCACTCGAGT [259-H6-002-R20]
L-DNA, rU at 20, reduced or lost vs parent, 37 C, synthetic backbone
  binding result: binds more weakly

## CAGACGUGUGUGGGUAGAUGCACCUGCGAUUCGCUAAAAAGUGCCACACGUCUG [NOX-G11-D17]
L-RNA, 2'-deoxy at 17, unchanged vs parent, 37 C, synthetic backbone
  binding result: binds

## ACTCGAGAGGAAAGGTTGGTAAAGGTTCGGTTGGAUTCACTCGAGT [259-H6-002-R13-R24-R30-R36]
L-DNA, rA at 13, rG at 24 and 30, rU at 36, slightly better than R13-R24-R36, variant of 259-H6-002
  binding result: binds

## ACTCGAGAGGAAAGGTTGGTAAAGGTTCGGTTGGATTCACTCGAGT [259-H6-002-R42]
L-DNA, ribo at 42, reduced or lost vs parent, 37 C, synthetic backbone
  binding result: binds more weakly

## CAGACGUGUGUGGGUAGAUGCACCUGCGAUUCGCUAAAAAGUGCCACACGUCUG [NOX-G11-D48]
L-RNA, 2'-deoxy at 48, improved vs parent, 37 C, synthetic backbone
  binding result: binds

## CAGACGUGUGUGGGUAGAUGCACCUGCGAUUCGCTAAAAAGUGCCACACGUCUG [NOX-G11-D35]
L-RNA, dT at 35, unchanged vs parent, 37 C, synthetic backbone
  binding result: binds

Construct, isoform or probe ends are uncertain for at least one entry. A weaker result is weaker than the reference pair of the same experiment.
